Results are given in words; binding and its absence hold for the method and conditions named. In cells and extracts the contact can be indirect. A result given as binding can be weak or reduced; the word gives no strength.
Biological target: Histone deacetylase 1 (Hdac1) (UniProt O09106)
Assay: pull-down; GST pulldown; which partner carried GST and the conditions are not told in the text shown (Supplementary Figure 3)

Sequences of proteins named here, by UniProt entry; tags and fusion partners are left off.
UniProt O09106: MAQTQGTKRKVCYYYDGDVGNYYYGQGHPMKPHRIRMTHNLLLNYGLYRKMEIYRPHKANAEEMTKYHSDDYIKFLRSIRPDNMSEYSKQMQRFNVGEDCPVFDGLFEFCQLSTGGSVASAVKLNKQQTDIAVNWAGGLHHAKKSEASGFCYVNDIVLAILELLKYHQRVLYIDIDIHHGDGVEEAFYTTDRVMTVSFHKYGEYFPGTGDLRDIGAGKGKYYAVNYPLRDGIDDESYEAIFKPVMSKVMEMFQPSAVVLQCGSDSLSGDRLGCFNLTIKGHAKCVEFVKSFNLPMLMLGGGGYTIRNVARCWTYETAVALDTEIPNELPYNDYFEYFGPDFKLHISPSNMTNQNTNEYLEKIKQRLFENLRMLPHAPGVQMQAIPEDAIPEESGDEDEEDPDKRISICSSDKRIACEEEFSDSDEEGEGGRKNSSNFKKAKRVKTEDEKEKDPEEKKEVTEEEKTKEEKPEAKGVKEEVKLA

In the case of “Transducin-like enhancer of split 3 (Tle3) (from UniProt Q08122-4)”, the binding is reported as “binds”.

— publication PMC6349449
